Results of single-concentration screens

Source: ChEMBL document CHEMBL3988442, “University of Dundee, Small-Polar-MMV Screening Library” (2021).

Results are given as percent effect. The record does not define 0% and 100%; most values in the screen are far below 50% and negative numbers occur (in some assays of this library far below -100). This is an unselected part of the compounds tested. Two or more numbers in one place are separate tests of the same structure; such repeats can differ widely.

A: 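Growth of Mycobacterium tuberculosis over 4 days (cholesterol / DPPC medium with tyloxapol); the read-out is not stated. Concentration: 50 µM. The record gives no direction; compounds that gave an IC50 in retests scored well above the rest, so higher reads as more growth inhibition. Of about 69,000 compounds tested this way, about 370 (0.54%) reached 50% or more in at least one test.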
B: 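Whole-cell growth test on Mycobacterium tuberculosis, read after 3 days in glucose-containing 7H9 medium; the read-out is not stated. Compounds at 50 µM. The record gives no direction; compounds that gave an IC50 in retests scored well above the rest, so higher reads as more growth inhibition. About 69,000 compounds were tested under these conditions; 1.1% (about 760) showed 50% or more at least once.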

SMILES	A	B
Cc1ncc(CN(C)Cc2nc3cc(Cl)ccc3n2C)s1	-19.64	17.06
Cc1nc(C)n(C2CCCN(C(=O)c3ccc(OC(C)C)nc3)C2)n1 (stereo not drawn)	4.693	-0.5266
Cn1ccc(C(=O)NCc2ccc(CN3CCCCC3)cc2)cc1=O	-10.18	9.135
CN(CCC(=O)N1CCCC(Cc2cccnc2)C1)Cc1cccnc1 (stereo not drawn)	-8.069	14.21
CC[C@@]1(O)CCN(Cc2cc(C3CCCCC3)no2)C[C@H]1O	-0.208 and 6.342	1.752 and 2.695
[H][C@@]12CCN(S(C)(=O)=O)[C@]1([H])CC[C@@H](c1nc(C)no1)O2	-19.91	-18.88
COCC(O)CN1CCC(NC(=O)c2cscc2C)CC1 (stereo not drawn)	17.75	5.827
Cc1cnc(C)c(N2CCC(Cc3ccccc3Cl)(C(=O)O)CC2)n1	7.304	24.79 and 3.389
Cc1noc(C2CCN(C(=O)CCCNc3ncccn3)CC2)n1	-5.887	-15.29
CC1(C(=O)NCCCOc2ccccc2F)CC(=O)N2C=CC=CC2=N1 (stereo not drawn)	15.11 and -5.5	-1.784
Brc1ccc(CNCc2nnc3n2CCCCC3)s1.Cl	-10.29	-20.78
Cn1ccc(-c2cc(C(=O)N3CCCCC3)c3ccccn23)n1	0.677	11.3
Cc1nc(CN2CCCN(C(=O)c3cnccn3)CC2)cs1	-5.415	-7.419
Cc1c(C(=O)N2CCCC(n3cncn3)C2)cnn1C (stereo not drawn)	-8.999	-15.02
CC(C)(CO)Nc1c(NCc2ccncc2)c(=O)c1=O	-8.527	25.13
O=C(O)C(F)(F)F.O=C(O)C(F)(F)F.[H][C@]12C[C@@H](CN(C)C)N(CC3CC3)[C@@]1([H])CCN(C(=O)c1cnoc1C)C2	-2.064	-26.3
O=c1cc(C2CCNCC2)nc(CCCc2ccccc2)[nH]1	-4.625	18.05
COCCN(CCOC)C(=O)c1ccc(Cn2nc(C)cc2C)cc1	12.77	3.959
COc1cccc(C2CCCN2C(=O)NCCCn2cccn2)c1 (stereo not drawn)	-4.949 and -9.577	17.72
CN(C)CCOCC1CN(CC2CCOCC2)Cc2nnn(C)c21.O=C(O)C(F)(F)F.O=C(O)C(F)(F)F (stereo not drawn)	-13.52	-8.178
Cc1nn(C)c2nc(N(C)CC3CCN(CC(C)C)C3)sc12 (stereo not drawn)	-4.543	14.26
Cc1cc(C(F)(F)F)nn1CCCNC(=O)C1CCN(S(C)(=O)=O)CC1	-0.9487	-9.012 and 2.908
[H][C@@]12CCN(CC3CC3)[C@@]1([H])CCN2C(=O)c1ccoc1	1.174	19.34
Cc1nc(C)n(CC2CCCN2CC(=O)NCCC2=CCCCC2)n1 (stereo not drawn)	15.15	-8.617
CN(C)CCOCC1CN(C(=O)N2CCCC2)Cc2ccnn2C1.O=C(O)C(F)(F)F.O=C(O)C(F)(F)F (stereo not drawn)	15.25	11.32 and 12.76
CCCNS(=O)(=O)c1ccc2[nH]c(=O)cc(C)c2c1	5.591	-1.337
COc1c(C2CCCN2C(=O)c2ccnn2C)c(C)nn1C (stereo not drawn)	-7.389 and -12.94	14.66
O=C(Cc1csc(-c2ccco2)n1)N1CCN(c2ccccc2O)CC1	-18.37	-10.85
Cc1ccccc1C(C)CC(=O)N1CC[C@H](O)C1 (stereo partly drawn)	11.8	4.341
O=C(CNC(Cn1cccn1)c1ccccc1)Nc1cnccn1 (stereo not drawn)	-34.92	-6.694 and -21.45
COCC(=O)NC(C)Cc1cccc(OC)c1 (stereo not drawn)	23.46	43.69
O=C(CCc1nnc(-c2ccsc2)o1)NCC1CCN(C2CC2)C1 (stereo not drawn)	-11.28	-15.66
Cc1ccc(C(=O)O)cc1S(=O)(=O)Nc1nn(-c2ccccc2)cc1C	-19.89	-18.25 and -8.829
CCc1ocnc1C(=O)N1CCOC(c2nc(C)n[nH]2)C1 (stereo not drawn)	-6.889	-3.97
CN1CCC(NC(=O)c2cc(C3CCCCC3)nc3ccccc23)CC1	-1.405	0.4163
O=C(Nc1ccccc1OCc1ccccn1)NC1CCOCC1	21.65	6.642
Cc1noc(C)c1CN1CCN(C(=O)C(C(C)C)n2cncn2)CC1 (stereo not drawn)	-35.89	-22.43
O=C(O)C(F)(F)F.[H][C@]12CCC[C@@]1(COCc1ccncc1)CN(C(=O)c1ccccc1)C2	-2.623 and -19.03	7.628 and 4.058
CC(C)NC(=O)CN(C)C1CCN(c2cnc3ccccc3n2)CC1	-11.96	-4.195
COc1ccc(NC(=O)N2CCCC(CO)C2)c(C)c1 (stereo not drawn)	2.952	-2.598 and 1.88
COc1c(C2CCCN2Cc2nc(C3CC3)no2)c(C)nn1C (stereo not drawn)	-23.31	-28
[H][C@]1([C@H](O)c2ccc(NC(=O)COC)cc2)COCC(=O)N1CC(C)C	-8.24	-35.38 and -7.23
CC(C)N1CCC2(CCCN(c3nccc(C(F)(F)F)n3)C2)CC1.O=C(O)C(F)(F)F	12.7	19.49
Cc1cc(C)nc(NC2CCC(=O)N(C)C2)n1 (stereo not drawn)	8.302	-11.38 and -8.55
CCc1cnc2c(c1Nc1ccc(OC)cc1)c(=O)n(C)c(=O)n2C	-11.03	-5.304
CC(C)CN1CCC(NC(C)c2ccccc2-n2cccn2)CC1 (stereo not drawn)	3.207	14.19
CC(NC(=O)Cn1ccc(=O)n(C)c1=O)c1ccccc1F (stereo not drawn)	-16.84	-12.88
Cc1ccc(S(=O)(=O)NC(=O)CCOCC(C)C)s1	-36.63	-7.823
CN(c1nccc(-c2cnc3sccn3c2=O)n1)C1CCCCC1	-4.188	30.81
Cc1nn(C)c(C)c1C1CCCN1Cc1ccc(C(N)=O)cc1 (stereo not drawn)	-9.748	-8.392
CCN1CCOCC12CCN(C(=O)Cc1ccccc1)CC2.O=C(O)C(F)(F)F	-1.148	8.041
CCC(CO)N(CC=C(C)C)Cc1ccsc1 (stereo not drawn)	-2.008 and -7.377	11.26
Cc1ncc(CN(C)C(=O)c2ccc(N3CCOCC3)c(F)c2)s1	9.458	1.51
O=C(NCC(=O)N1CCCCC1)c1ccoc1	-23.71	-10.52
CCNC(=O)[C@@H]1C[C@@H](N)CN1C(=O)c1[nH]c2ccccc2c1CC	5.756	8.131
CC(NC(=O)NCCCN(C)S(C)(=O)=O)c1ccc(C#N)cc1 (stereo not drawn)	-23.7	-6.573
CN(Cc1nnc2n1CCC2)C(=O)NCCc1ccc2c(c1)OCO2	-28.78	-6.889
CCCn1nc2c(cc1=O)CN(CCN1CCCC1=O)CC2	-47.05	-43.63
O=C(O)C(F)(F)F.O=C(O)C(F)(F)F.c1coc(CN2CCCC3(COCCN(Cc4c[nH]nn4)C3)C2)c1 (stereo not drawn)	23.79	25.81
CC(=O)N1CCCC2(CCN(C(=O)c3nccnc3N)CC2)C1	-3.24	28.93
O=C(O)c1ccccc1C1CCN(C2Cc3ccccc3C2)C1 (stereo not drawn)	-6.386 and -6.693	-19.44
Cc1nc(Oc2ccccc2F)sc1C(=O)O	5.361	8.407
COCCC1COC2(CCN(C(=O)C3CCC3)CC2)C1 (stereo not drawn)	-5.627	-2.229
Cc1cc2c(cc1C)OC(C(=O)NCCNC(=O)C1CCCC1)C2 (stereo not drawn)	-10.03	9.76
Cc1ccsc1CN(C)c1cc(N2CCCC2CO)ncn1 (stereo not drawn)	3.243	25.29
CCc1ccc(OCC(O)CN2CCN(CCO)CC2)cc1.Cl.Cl (stereo not drawn)	-1.709	21.24
FC(F)(F)c1ccnc(N2CCCN(C3CCOCC3)CC2)c1	-0.9046	10.75 and 8.362
Cc1nc(N)c2ccc(C3CCCN3)nc2n1.Cl (stereo not drawn)	-12.99 and 3.41	-8.693
Cc1cc(S(=O)(=O)N2CCCc3ccccc32)sc1C(=O)O	-11.29 and -11.82	-3.917
Cc1cccc2c1nc(COCC(=O)O)n2-c1cnc(N)cn1	-3.214 and 4.672	-3.338

The last 4 entries again:

SMILES	A	B
FC(F)(F)c1ccnc(N2CCCN(C3CCOCC3)CC2)c1	-0.9046	10.75 and 8.362
Cc1nc(N)c2ccc(C3CCCN3)nc2n1.Cl (stereo not drawn)	-12.99 and 3.41	-8.693
Cc1cc(S(=O)(=O)N2CCCc3ccccc32)sc1C(=O)O	-11.29 and -11.82	-3.917
Cc1cccc2c1nc(COCC(=O)O)n2-c1cnc(N)cn1	-3.214 and 4.672	-3.338